The record followed here is paper PMC11164680.

Amino acid sequences for entries named in this document (tags omitted). Residues count along the entry.
UniProt P07237, residues 18-508: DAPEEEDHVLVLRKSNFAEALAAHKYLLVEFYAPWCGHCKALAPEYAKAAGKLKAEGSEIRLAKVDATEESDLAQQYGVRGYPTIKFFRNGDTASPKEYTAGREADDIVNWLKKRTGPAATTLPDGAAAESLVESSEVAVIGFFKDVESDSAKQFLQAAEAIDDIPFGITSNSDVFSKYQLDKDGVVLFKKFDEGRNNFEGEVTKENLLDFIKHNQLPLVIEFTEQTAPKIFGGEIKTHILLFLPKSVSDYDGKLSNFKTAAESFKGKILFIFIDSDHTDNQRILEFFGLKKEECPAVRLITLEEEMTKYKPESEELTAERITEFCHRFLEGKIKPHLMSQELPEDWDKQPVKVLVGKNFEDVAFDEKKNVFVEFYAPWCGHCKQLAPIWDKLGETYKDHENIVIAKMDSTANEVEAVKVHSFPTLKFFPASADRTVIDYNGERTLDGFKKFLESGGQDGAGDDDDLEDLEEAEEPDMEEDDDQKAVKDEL
UniProt O15460, residues 22-535: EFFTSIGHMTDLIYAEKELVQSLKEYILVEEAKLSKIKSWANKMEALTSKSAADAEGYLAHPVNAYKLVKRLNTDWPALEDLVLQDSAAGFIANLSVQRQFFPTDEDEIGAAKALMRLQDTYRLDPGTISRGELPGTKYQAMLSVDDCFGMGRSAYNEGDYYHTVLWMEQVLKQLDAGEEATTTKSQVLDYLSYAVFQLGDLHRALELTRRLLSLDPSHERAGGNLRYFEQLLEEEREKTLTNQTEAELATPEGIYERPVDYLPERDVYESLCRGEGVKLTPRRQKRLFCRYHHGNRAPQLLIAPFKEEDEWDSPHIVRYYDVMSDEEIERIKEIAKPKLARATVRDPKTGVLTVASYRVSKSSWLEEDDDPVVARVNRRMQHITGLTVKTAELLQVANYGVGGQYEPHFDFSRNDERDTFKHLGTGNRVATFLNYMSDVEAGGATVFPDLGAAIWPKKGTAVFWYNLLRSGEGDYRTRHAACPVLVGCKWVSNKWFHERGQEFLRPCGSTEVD

The experiment concerns the target HA-tagged P4HB (UniProt P07237). The experiment in a line: co-IP; whole-cell lysates of transfected 293T cells; magnetic beads carrying anti-Flag or anti-HA antibodies, 3 h at 4 °C; IP buffer 50 mM Tris-HCl pH 7.5, 150 mM NaCl, 0.5% NP-40, 10% glycerol; immunoblot.

Results are given in words; binding and its absence hold for the method and conditions named. In cells and extracts the contact can be indirect. Some entries that bind do so weakly or less than the wild type.

Consider “prolyl 4-hydroxylase subunit alpha-2 (P4HA2), endogenous in 293T cells (from UniProt O15460 22-535) (enzyme)”, for which the binding result is given as “binds”.
